This note sets out measurements from PubChem BioAssay AID493014 (National Center for Advancing Translational Sciences (NCATS), 2011).

Molecules are shown by their SMILES. The list shows a part of the results. These are further read-outs of the screen, such as a control signal, another cell line or another target. No call is given for them. Compounds called inactive in the main read-out are mostly missing here. Words in brackets tell the shape of the fitted curve; partial curves, single points and poor fits give uncertain potencies.

The assay in a line: qHTS Assay to Find Inhibitors of Chronic Active B-Cell Receptor Signaling. Conditions: ABC-DLBCL IkBa-CBG/CBR reporter, luminescence ratio (green luciferase fused to IkBa over red control in TMD8 lymphoma cells), 4 h. A digest of the protocol:
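Cell line TMD8 (human ABC DLBCL), stably expressing tet-inducible CBG68-IkBa fusion and CBR; IMDM/0.5% FBS; cpd up to 46 uM; dox induction, 4 h, 37C/5% CO2; dual luminescence; green/red ratio; MG132 control.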

The mark [1] stands for this setting: measured here: CBR red luminescence, cell number.
Setting [2] is: measured here: IkBa-CBG green luminescence.

`O=[N+]([O-])/C(C(Cl)=C(Cl)Cl)=C(/NC1CC1)Sc1ccccc1`: the AC50 under setting [1] was 35.5 µM [falling, single point].

Turning to `C(=C\c1ccccn1)/c1ccncc1`, the AC50 under setting [1] is 5.62 µM [rising, single point].

Consider `Cc1cccc(NC(=O)C2CCN(S(=O)(=O)c3c(C)c(C)cc(C)c3C)CC2)n1`, for which the AC50 under setting [1] was 9.2 µM [falling, partial curve] and the AC50 under setting [2] was 9.2 µM [rising, partial curve, poor fit].

`COc1cc(NC(=O)CSc2ccccc2)c(C(=O)O)cc1OC`: under setting [1], the AC50 was 29.1 µM [falling, single point].

For `COC(=O)n1c(SC)nc2ccccc21`, the AC50 under setting [1] was 25.1 µM [falling, partial curve, poor fit].

As to `COc1ccc(OC)c2c(N3CC(C)OC(C)C3)cc(C(F)(F)F)nc12` (configuration not stated), the AC50 under setting [1] is 3.16 µM [rising, full curve, poor fit].

Take `O=C(Nc1nccs1)c1nc(-c2ccccc2)n(-c2ccccc2)n1`: the AC50 under setting [1] was 3.55 µM [rising, partial curve, poor fit].

As for `COCC(=O)N(c1ccc(C(C)C)cc1)C1C=CS(=O)(=O)C1` (configuration not stated), the half-maximal activity concentration (AC50) is 6.51 µM [rising, single point] under setting [1] and 6.51 µM [falling, partial curve, poor fit] under setting [2].

`O=C(N=C1SCC(=O)N1c1ccccc1)c1ccco1`: the AC50 under setting [1] was 29.1 µM [rising, single point].

On to `FC(F)(F)c1ccccc1NC(=S)N/N=C1\CC2CC=CC12` (configuration not stated), for which the AC50 under setting [1] is 35.5 µM [falling, partial curve, poor fit] and the AC50 under setting [2] is 35.5 µM [falling, single point].

In the case of `CCOc1cccc2sc(Nc3nc4ccc(NC(C)=O)cc4s3)nc12`, under setting [1], the AC50 was 10.3 µM [falling, partial curve].

Consider `CCOc1cc(C2c3c(-c4ccccc4)n[nH]c3C(=O)N2c2ccc(C(=O)O)cc2)ccc1O` (configuration not stated), for which, under setting [1], the AC50 is 7.08 µM [falling, partial curve].

Take `COc1ccc(NC(=O)Nc2cccc3cccnc23)cc1`: the AC50 under setting [1] was 2.82 µM [falling, partial curve].

As for `CCC1S/C(=N/N=C/c2ccco2)N(Cc2ccccc2C)C1=O` (configuration not stated), the AC50 under setting [1] was 35.5 µM [falling, single point].

As for `Cc1ccc(S(=O)(=O)n2nnc3ccccc32)c(C)c1C`, the AC50 under setting [1] is 35.5 µM [falling, single point].

`COc1cccc(Cn2c(-c3nonc3N)nc3ccccc32)c1`: the AC50 under setting [1] was 29.1 µM [rising, partial curve, poor fit].

Turning to `COC(=O)C1=C(C)NC(=O)C1(NC(=O)CN1CCCC1=O)C(F)(F)F` (configuration not stated), the AC50 under setting [1] is 1.03 µM [rising, full curve, poor fit].

As to `COC(=O)N/N=C/c1cn(CCOc2cccc(OC)c2)c2ccccc12`, the AC50 under setting [1] was 35.5 µM [falling, single point].

On to `CCCc1nc2oc3cc(OC)ccc3c(=O)c2c(=O)n1CCc1ccccc1`, for which, under setting [1], the AC50 is 35.5 µM [falling, single point].

For the compound `Cc1cc(C)cc(NC(=S)N(Cc2ccc(Br)cc2)Cc2ccc(C(=O)O)cc2)c1`, the AC50 under setting [1] was 12.6 µM [falling, partial curve].

Regarding `Cc1ccc(NC(=S)NCc2ccc3c(c2)OCO3)cc1`, the AC50 under setting [1] was 1.64 µM [rising, partial curve, poor fit].

Turning to `Cc1cccc([C@@H]2[C@@H]3C(=O)N(Cc4ccccc4)C(=O)[C@@H]3[C@]3(C)C(=O)N(c4ccc(C(F)(F)F)cc4)C(=O)N23)c1`, the AC50 under setting [1] was 11.2 µM [falling, single point].

With `Cn1c(SCC(=O)c2cc3ccccc3o2)nnc1-c1ccccc1`, the AC50 under setting [1] is 2.91 µM [falling, full curve].

For the compound `COc1ccc(NC(=O)CC(c2ccc(F)cc2)c2ccc(OC(C)C)cc2)cc1` (configuration not stated), the concentration at half-maximal activity (AC50) under setting [1] is 29.1 µM [rising, single point].

With `CCN(CCCNC(=O)CN1C(=O)COc2ccc(S(=O)(=O)N3CCC(C)CC3)cc21)Cc1ccccc1`, the AC50 under setting [1] was 35.5 µM [falling, single point].

With `CCOc1ccccc1NC(=S)NC(=O)C1CC1`, the AC50 under setting [1] is 0.562 µM [falling, full curve, poor fit].

In the case of `C[C@H](NC(=O)c1[nH]cnc1C(=O)Nc1ccccc1)C(=O)OC(C)(C)C`, under setting [1], the AC50 was 1.58 µM [falling, partial curve].

Turning to `CC(OC(=O)c1cc(=O)[nH]c2ccccc12)C(=O)NC1CCCC1` (configuration not stated), the AC50 under setting [1] was 13 µM [rising, single point].

`O=C(Nc1cccnc1Cl)c1cc(-c2ccccc2O)on1`: the AC50 under setting [1] was 1.78 µM [falling, full curve].

In the case of `N#CC(=C1CCCC1)c1nc(-c2ccccc2O)cs1`, under setting [1], the AC50 was 12.6 µM [falling, single point].

As for `N#CCSc1nc2[nH]ncc2c(=O)n1-c1ccccc1Br`, under setting [1], the AC50 is 2 µM [falling, full curve].

On to `CC(Sc1nnc(-c2ccc(Cl)cc2Cl)n1Cc1ccccc1)C(=O)Nc1nccs1` (configuration not stated), for which, under setting [1], the AC50 was 12.6 µM [falling, single point].

On to `COc1ccc(-c2[nH]c(-c3ccc(C)cc3)nc2SCC(=O)NC2CCCC2)cc1`, for which the AC50 under setting [1] was 4.61 µM [rising, full curve, poor fit].

In the case of `O=C(N/N=C/c1ccc([N+](=O)[O-])o1)c1ccc(NS(=O)(=O)c2cccs2)cc1`, the AC50 under setting [1] is 17.8 µM [falling, single point].

Consider `CC1N(C(=O)N2CCOCC2)CCN1S(=O)(=O)c1cccc(C(F)(F)F)c1` (configuration not stated), for which, under setting [1], the AC50 is 14.1 µM [rising, partial curve, poor fit].

In the case of `CCc1ccccc1N(CC)C(=O)c1cn(CC)c(=O)c2cc(OC)c(OC)cc12`, under setting [1], the AC50 was 22.4 µM [falling, single point].

As for `COc1ccccc1C(=O)N/N=C/c1c[nH]c2ccccc12`, under setting [1], the AC50 was 0.355 µM [falling, full curve, poor fit].

With `CC(=O)Nc1ccc(-c2csc(Nc3ccc(Cl)cn3)n2)cc1`, the AC50 under setting [1] is 0.316 µM [falling, partial curve, poor fit].

Turning to `CC(C(=O)O)C1SC(=O)NC1=O` (configuration not stated), the AC50 under setting [1] was 0.366 µM [falling, full curve, poor fit].

With `Cc1ccc(-c2noc(CSc3ccccc3)n2)cc1`, the AC50 under setting [1] was 16.4 µM [falling, single point].

As for `Cc1ccc(-c2nc(CSCC(=O)Nc3cc(C)on3)c(C)o2)cc1`, the AC50 under setting [1] was 7.94 µM [falling, partial curve, poor fit].

On to `Cc1ccc(OCc2nc(-c3cccnc3)no2)cc1C`, for which the half-maximal activity concentration (AC50) under setting [1] was 2.51 µM [rising, single point].

As for `COc1cccc(OC)c1C(=O)OCC(=O)N(C)c1ccccc1`, the AC50 under setting [1] was 8.91 µM [rising, partial curve, poor fit].

Take `CC(C)CN=Cc1c(O)c([N+](=O)[O-])cc2oc3c(c12)CCCC3`: the AC50 under setting [1] was 9.2 µM [rising, partial curve, poor fit].

As to `O=C(CSc1nccc(=O)[nH]1)N1CCc2ccccc2C1`, the AC50 under setting [1] was 16.4 µM [falling, single point].

Consider `O=C(Nc1ccccc1)Nc1ccc(Br)c(Cl)c1`, for which the AC50 under setting [1] was 23.1 µM [falling, single point].

In the case of `COc1ccccc1C(=O)NCc1ccc(-c2nc3ccccc3s2)cc1`, under setting [1], the AC50 was 3.26 µM [rising, full curve, poor fit].

Consider `OCCOCCNc1ncnc2c1cnn2-c1ccc(Cl)cc1`, for which, under setting [1], the AC50 was 35.5 µM [falling, single point].

As to `CCC(=O)Nc1cc(NC(=O)CSc2ncc(-c3ccc(F)cc3)n2Cc2ccco2)ccc1C`, the AC50 under setting [1] was 22.4 µM [falling, single point].

Regarding `COc1ccccc1-c1c(C)oc2c(CN3CCCC(C)C3)c(O)ccc2c1=O` (configuration not stated), the AC50 under setting [1] was 2 µM [rising, full curve, poor fit].

`CN(C)CCCNc1nc(-c2ccc(Cl)cc2)nc2ccccc12`: the half-maximal activity concentration (AC50) under setting [1] is 15.8 µM [falling, single point].

`CCN(CC)c1ccc(-c2nn3c(-c4ccccc4OC)nnc3s2)cc1`: the AC50 is, setting by setting: under setting [1], 10 µM [falling, partial curve, poor fit]; under setting [2], 0.794 µM [falling, full curve].

For `CC1CCC2(CC1)NC(=O)N(CC(=O)NCc1ccc(Cl)cc1)C2=O` (configuration not stated), under setting [1], the AC50 is 0.116 µM [rising, full curve, poor fit].

As for `FC(F)(F)COc1nc(N/N=C/c2cccnc2)nc(N2CCCCC2c2ccccn2)n1` (configuration not stated), the AC50 under setting [1] was 10 µM [falling, partial curve, poor fit] and the half-maximal activity concentration (AC50) under setting [2] is 3.55 µM [rising, full curve, poor fit].

As for `COc1ccc(Cl)c2sc(N3CCN(C(=O)c4ccco4)CC3)nc12`, the concentration at half-maximal activity (AC50) under setting [1] is 0.517 µM [rising, full curve, poor fit].

Take `O=C(/C=C/c1ccc(-c2ccccc2)o1)c1ccccc1`: under setting [1], the AC50 was 11.6 µM [falling, partial curve, poor fit].

With `CCN(C)Cc1c(C(=O)N2CCc3ccccc3C2)nc2ccc(Cl)cn12`, under setting [1], the AC50 was 31.6 µM [falling, single point].

`O=C(N/N=C/C(Cl)=C/c1ccc([N+](=O)[O-])cc1)C(=O)Nc1ccccc1C(=O)O`: the AC50 under setting [1] is 1.12 µM [falling, full curve].

With `O=C(Cn1ccc(C(F)(F)F)n1)N/N=C/c1cccs1`, the AC50 under setting [1] was 29.1 µM [rising, single point].

On to `COCCNC(=O)C(C#N)c1nc2ccccc2nc1N1CCCCCC1` (configuration not stated), for which the AC50 under setting [1] is 3.16 µM [falling, partial curve, poor fit].

Turning to `COc1ccc(N2C(=O)CC(Sc3nc4ccccc4s3)C2=O)cc1OC` (configuration not stated), the AC50 under setting [1] was 0.1 µM [rising, full curve, poor fit].

Regarding `CCOC(=O)N1CCN(c2ccc(F)cc2[N+](=O)[O-])CC1`, the AC50 under setting [1] is 11.6 µM [rising, partial curve, poor fit].
